Here are results for 4 molecules from patent US20150140001A1 (Scripps Research, published 2015).

Amino acid sequences for entries named in this document (tags omitted). A change or cut given only in a name is not applied to a line headed by its entry.
UniProt Q86T13: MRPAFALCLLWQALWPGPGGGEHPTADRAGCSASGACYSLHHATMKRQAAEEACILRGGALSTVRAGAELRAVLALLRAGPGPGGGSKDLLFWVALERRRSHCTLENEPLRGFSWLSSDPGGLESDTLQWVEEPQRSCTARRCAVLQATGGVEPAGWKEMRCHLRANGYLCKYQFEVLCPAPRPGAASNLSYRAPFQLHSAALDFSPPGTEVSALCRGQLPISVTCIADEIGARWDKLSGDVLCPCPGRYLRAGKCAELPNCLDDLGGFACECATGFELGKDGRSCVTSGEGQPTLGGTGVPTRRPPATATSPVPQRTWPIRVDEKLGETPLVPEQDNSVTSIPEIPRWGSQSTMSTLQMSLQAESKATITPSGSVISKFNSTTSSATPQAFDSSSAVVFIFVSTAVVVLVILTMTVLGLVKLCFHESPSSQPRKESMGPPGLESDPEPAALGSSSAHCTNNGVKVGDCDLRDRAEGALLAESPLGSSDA
UniProt Q8VCP9: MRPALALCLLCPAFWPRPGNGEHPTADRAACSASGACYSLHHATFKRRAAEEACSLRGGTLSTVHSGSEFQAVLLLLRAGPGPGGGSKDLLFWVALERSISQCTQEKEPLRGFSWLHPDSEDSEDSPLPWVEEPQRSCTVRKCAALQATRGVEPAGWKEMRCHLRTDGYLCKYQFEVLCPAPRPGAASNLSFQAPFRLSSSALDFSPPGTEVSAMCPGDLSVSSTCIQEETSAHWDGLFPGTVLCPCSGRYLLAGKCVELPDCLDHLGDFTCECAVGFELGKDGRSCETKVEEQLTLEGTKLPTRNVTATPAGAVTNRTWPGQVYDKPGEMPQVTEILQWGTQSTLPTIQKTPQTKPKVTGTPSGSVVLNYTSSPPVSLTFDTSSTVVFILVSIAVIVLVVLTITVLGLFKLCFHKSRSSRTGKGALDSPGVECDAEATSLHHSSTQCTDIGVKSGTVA

Where a chain is given by its changes, count along the chain named. These are yes or no findings as the source states them, for the method shown. Some binding calls cover weakened binding; strength is not graded here. For part of these data: Sequences can lack the tags named with a protein.

Test [1] deals with recombinant human clec14a CTLD Fc fusion protein (hCTLD-Fc) (human) (UniProt Q86T13). The experiment in a line: ELISA, coated hCTLD-Fc (25 nM), 67 nM IgG. A general note: ELISA stands for enzyme-linked immunosorbent assay.
For test [2], the target named is recombinant mouse clec14a CTLD Fc fusion protein (mCTLD-Fc) (mouse; human) (UniProt Q8VCP9). The experiment in a line: ELISA, coated mCTLD-Fc (25 nM), 67 nM IgG.
The target in test [3] is T1, fusion protein comprising an amino acid fragment from 122nd amino acid to 142nd amino acid in hCTLD (human).
T1 sequence: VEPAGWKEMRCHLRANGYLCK
The experiment in a line: epitope mapping ELISA, coated fragment-Fc 10 µg/ml, IgG 10 µg/ml.

For test [4], the target named is recombinant human clec14a CTLD Fc fusion protein (hCTLD-Fc) (human) (UniProt Q86T13). The test can be described thus: phage enzyme immunoassay (phage ELISA) on hCTLD-Fc.
The target of test [5] is recombinant mouse clec14a CTLD Fc fusion protein (mCTLD-Fc) (mouse; human) (UniProt Q8VCP9). The experiment in a line: phage enzyme immunoassay (phage ELISA) on mCTLD-Fc.

B1: clec14a-CTLD IgG clone 4 (antibody, V domains shown)
VH: EVQLLESGGGLVQPGGSLRLSCAASGFTFSGYYMSWVRQAPGKGLEWVSVIYSGDGSTYYADSVKGRFTISRDNSKNTLYLQMNSLRAEDTAVYYCARGLNSSSALPFDYWGQGTLVTVSS
VL: QSVLTQPPSASGTPGQRVTISCSGSSSNIGSNAVNWYQQLPGTAPKLLIYADSNRPSGVPDRFSGSKSGTSASLAISGLRSEDEADYYCGSWDYSLSAYVFGGGTKLTVL
Turning to B1, the binding entry in test [1] and in test [2] was “binds” each time.

B2: clec14a-CTLD IgG clone 2 (antibody, V domains shown)
VH: EVQLLESGGGLVQPGGSLRLSCAASGFTFSSYDMSWVRQAPGKGLEWVSVISPDSSSTYYADSVKGRFTISRDNSKNTLHLQMNSLRAEDTAVYYCARHTGWQSRPHTYYDYGMDVWGQGTLVTVSS
VL: B1 VL with S31N, N35T, A51S, S53N, N54H, S91T, Y94A, A98G
notes: Lambda light chain
As to B2, the binding entry in test [3] is “binds”.

B3: scFv clone 4 (phage-displayed) (scFv, V domains shown)
VH: B1 VH
VL: B1 VL
As to B3, the binding result in test [4] and in test [5] was “binds” in each case.

B4: clec14a-CTLD IgG clone 1 (antibody, V domains shown)
VH: EVQLLESGGGLVQPGGSLRLSCAASGFTFSGYDMSWVRQAPGKGLEWVSGIYPDGGNTYYADSVKGRFTISRDNSKNTLYLQMNSLRAEDTAVYYCARGATWWVLGPFDYWGQGTLVTVSS
VL: B1 VL with S23T, S31N, A33S, N35T, N54H, S91A, Y94D, A98G
notes: scFv converted to IgG; Lambda light chain, detected with anti-human lambda antibody
As for B4, the binding entry in test [3] is reported as “binds”.
